{
  "source": "paper PMC8780828",
  "about": "(Viruses, 2021)",
  "assay": "in vitro",
  "conditions": "human",
  "data": [
    {"compound": "C[C@H]1O[C@@H](O[C@H]2[C@@H](O)C[C@H](O[C@H]3[C@@H](O)C[C@H](O[C@H]4CC[C@@]5(C)[C@H](CC[C@@H]6[C@@H]5C[C@@H](O)[C@]5(C)[C@@H](C7=CC(=O)OC7)CC[C@]65O)C4)O[C@@H]3C)O[C@@H]2C)C[C@H](O)[C@@H]1O", "note": "[Digoxin, reference compound]", "values": [
      {"measurement": "efflux ratio", "setting": "Caco-2", "value": 37.9},
      {"measurement": "Papp B→A", "setting": "Caco-2, B-to-A Papp (cell batch quality control)", "value": 129, "unit": "nm/s"}
    ]}
  ]
}
